# From PubChem BioAssay AID624297 (National Center for Advancing Translational Sciences (NCATS), 2012)
# Hit rate of the full screen: of about 340,000 compounds, about 6,200 (1.8%) were called active. The inconclusive results got no clear call from the source; some entries with a clear call stand among them for comparison. Calls follow the shape of the dose curve; as a rule, active = well fitted activation curve with a large enough effect; inconclusive = small, poorly fitted or top-dose-only effect; inactive = no such curve, though single readings can be large or run the other way. Where the call is inconclusive, the potency comes from a doubtful curve fit.
# Experiment: A quantitative high throughput screen for small molecules that induce DNA re-replication in SW480 colon adenocarcinoma cells. Also: nearly all actives have a fitted effect of over 55% in size. As to re-replication activation: % of control where 0% means no effect.
# Conditions: Hoechst DNA content imaging, 48 h; re-replication activation: at 46.1 µM (top of the series) unless noted
# In short: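 Readout is total intensity of Hoechst-stained nuclei, excited at 405 nm and collected at 500-530 nm. Compound treatment lasted 48 hr at 37 C in 5% CO2 before staining.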
# Potency is read from the fitted curve at half-maximal effect.
SMILES,Potency,re-replication activation
COc1cc2c(cc1OC)C(=O)N1[C@H]3c4cc(C)ccc4OC[C@@H]3[C@H](c3ccccc3)[C@]1(C)C(=O)N2,active: 13 µM,–
O=C(c1ccc([N+](=O)[O-])cc1)N1CCC(n2nnc3cc(F)ccc32)CC1,"inconclusive: 20.6 µM [activator, partial curve, poor fit]",–
Cc1cc(=O)c2cccc(Br)c2[nH]1,–,inactive: 3.11%
CCOC(=O)C1=C(C)N(CCCC(=O)O)C(=O)NC1C(CC)CC (stereo not drawn),"inconclusive: 5.8 µM [activator, single point]",–
NC(=S)Nc1cccc2cc3ccccc3cc12,active: 11.6 µM,–
Cc1nnnn1/C(=C\c1ccccc1)C(=O)OCC(=O)Nc1cccc(S(=O)(=O)N(C)C)c1,"inconclusive: 18.4 µM [activator, single point]",–
Cc1nn(Cc2ccc(C(=O)N3N=C(C(F)F)CC3(O)C(F)F)cc2)c(C)c1[N+](=O)[O-] (stereo not drawn),–,inactive: -0.343%
CCN1CCN(c2ccc(S(=O)(=O)N3CCCCC3)cc2NC(=O)c2ccc([N+](=O)[O-])s2)CC1,active: 13 µM,–
C[C@@H](C(=O)NCCc1c[nH]c2ccccc12)[C@H]1C[C@]1(C)[C@H](NC(=O)OCc1ccccc1)c1ccccc1,active: 14.6 µM,–
CN1CC(COCc2ccccc2)Oc2ccccc2S1(=O)=O (stereo not drawn),"inconclusive: 0.461 µM [activator, partial curve, poor fit]",–
COc1cccc(CNc2ccc3[nH]c(=O)[nH]c3c2)c1OCc1ccccc1,–,inactive: -0.351%
COc1ccc(NC2CCCN(C(=O)CN3CCOC3=O)C2)cc1OC (stereo not drawn),–,inactive: -9.87%
Cc1ccccc1Nc1nc(N)nc(COC(=O)c2cccc(S(=O)(=O)NCc3ccccc3)c2)n1,–,inactive: 0.713%
CCCn1c(=N)c(C(=O)NCC2CCCO2)cc2c(=O)n3cccc(C)c3nc21 (stereo not drawn),"inconclusive: 4.11 µM [activator, single point]",–
CCOC(=O)N1CCN(C(=O)c2c[nH]c3ccc(S(=O)(=O)N(C)c4cccc(C)c4)cc3c2=O)CC1,"inconclusive: 1.84 µM [activator, partial curve, poor fit]",–
CCCCN(C)CCNC(=O)CN1C(=O)CSc2ccc(S(=O)(=O)N3CCOCC3)cc21,"inconclusive: 29.1 µM [activator, single point]",–
C/C(=N\NC(=O)c1ccc(Cl)c(Cl)c1)c1ccc(Br)s1,"inconclusive: 20.6 µM [activator, single point]",–
CCN(CC)CCN(C(=O)c1cc2ccccc2cc1OC)c1nc2ccc(F)cc2s1,"inconclusive: 16.4 µM [activator, single point]",–
COc1cc(OC)c(N(C)S(=O)(=O)c2cccc(C(=O)OCC(=O)c3c[nH]c4ccccc34)c2)cc1Cl,"inconclusive: 20.6 µM [activator, single point]",–
CCOC(=O)c1c(CN2CCOCC2)n(C)c2cc(Br)c(O)c(CN(C)C)c12,"inconclusive: 16.4 µM [activator, single point]",–
Cc1cc(-c2ccc(C(C)C)c(S(=O)(=O)N3CCN(c4ccccn4)CC3)c2)on1,"inconclusive: 18.4 µM [activator, single point]",–
O=c1c2ccccc2c(C=Nc2cccc(O)c2)c(O)n1-c1ccc2c(c1)OCO2,"inconclusive: 20.6 µM [activator, single point]",–
COC(=O)[C@@H](Cc1c[nH]c2ccccc12)NC(=O)c1cc(=O)[nH]c2ccccc12,–,inactive: -3.69%

SMILES,Potency,re-replication activation
COc1ccc2c(c1)O[C@H](c1ccc3c(c1)OCO3)[C@@H](OC(=O)Nc1cc(OC)c(OC)c(OC)c1)C2=O,active: 11.6 µM,–
CCCNC(=S)N1CCC(C(=O)c2ccc(Cl)cc2)CC1,active: 7.31 µM,–
COc1ccc([C@H]2CC(=O)c3c(O)cc(O)cc3O2)cc1O,"inconclusive: 20.6 µM [activator, partial curve, poor fit]",–
COc1cc2c(cc1OC)CN(C(=O)CCOc1ccccc1C)CC2,"inconclusive: 29.1 µM [activator, single point]",–
C=CCn1c(SCC(=O)N2CCOCC2)nc2sc3c(c2c1=O)CCCC3,–,inactive: 18.1%
Oc1ccc(C=NNC(=S)Nc2ccc(F)cc2)c(O)c1,"inconclusive: 23.1 µM [activator, single point]",–
CC(C)Sc1nsc2nc(=O)c(/C=C3\C=Nc4ccccc43)c(N)n12,"inconclusive: 23.1 µM [activator, single point]",–
O=C1N(O)C2(C=CCCC2)/C(=N\O)C12CCCCC2 (stereo not drawn),"inconclusive: 29.1 µM [activator, single point]",–
CC(C)(C)c1cc(NS(=O)(=O)c2ccc(Br)s2)no1,–,inactive: -2.76%
CCc1nnc(NC(=O)COc2ccc3c(c2)OCO3)s1,–,inactive: -11.3%
CCOC(=O)N1CCC(NC(=O)CSCc2nc(-c3ccc(OC)cc3)oc2C)CC1,–,inactive: 20.2%
Cc1csc(SCC(=O)Nc2cc([N+](=O)[O-])ccc2F)n1,"inconclusive: 23.1 µM [activator, single point]",–
CC(CN(C)C)CN1c2ccccc2Sc2ccc(C(F)(F)F)cc21 (stereo not drawn),"inconclusive: 33.5 µM [activator, partial curve, poor fit]",–
CCOc1ccc(/C=C/C2=Cc3c(sc(NC(=O)CSc4n[nH]c(N)n4)c3C#N)C(C)(C)C2)cc1,active: 16.4 µM,–
NC(=O)CC(NSc1ccccc1[N+](=O)[O-])C(=O)O (stereo not drawn),"inconclusive: 0.82 µM [activator, full curve, poor fit]",–
CCOC(=O)c1sc(NC(=O)c2ccoc2C)c(C(N)=O)c1C,–,inactive: -0.826%
Oc1cccc(C=Nc2cccc3ccccc23)c1O,active: 18.4 µM,–
COC(=O)c1c(NC(=O)CC2SC(N)=NC2=O)sc(C)c1C (stereo not drawn),"inconclusive: 14.6 µM [activator, single point]",–
CN(Cc1cnc2nc(N)nc(N)c2n1)c1ccc(C(=O)NC(CCC(=O)O)C(=O)O)c2ccccc12 (stereo not drawn),"inconclusive: 0.058 µM [activator, full curve, poor fit]",–
CCCCNS(=O)(=O)c1ccc(NC(=O)C2c3ccccc3Oc3ccccc32)cc1,"inconclusive: 29.1 µM [activator, partial curve, poor fit]",–
CCOC(=O)/C(=C/c1ccc(OC(=O)c2ccncc2)cc1)C(C)=O,–,inactive: -2.08%
COc1cc(NC(=O)CSc2ccc(-c3ccccn3)nn2)cc(OC)c1,"inconclusive: 29.1 µM [activator, partial curve, poor fit]",–
Cc1ccc(NC(=O)CCNC(=O)c2ccc([N+](=O)[O-])cc2)cc1S(=O)(=O)N1CCOCC1,"inconclusive: 0.291 µM [activator, full curve, poor fit]",–

# Part of the list above in another layout.
SMILES | Potency | re-replication activation
CCOC(=O)N1CCC(NC(=O)CSCc2nc(-c3ccc(OC)cc3)oc2C)CC1 | – | inactive: 20.2%
Cc1csc(SCC(=O)Nc2cc([N+](=O)[O-])ccc2F)n1 | inconclusive: 23.1 µM [activator, single point] | –
CC(CN(C)C)CN1c2ccccc2Sc2ccc(C(F)(F)F)cc21 (stereo not drawn) | inconclusive: 33.5 µM [activator, partial curve, poor fit] | –
CCOc1ccc(/C=C/C2=Cc3c(sc(NC(=O)CSc4n[nH]c(N)n4)c3C#N)C(C)(C)C2)cc1 | active: 16.4 µM | –
NC(=O)CC(NSc1ccccc1[N+](=O)[O-])C(=O)O (stereo not drawn) | inconclusive: 0.82 µM [activator, full curve, poor fit] | –

# Following part:

SMILES,Potency,re-replication activation
CCOC(=O)CNc1nc(C(C)(C)C)nc2c1nnn2Cc1ccccc1,"inconclusive: 0.0046 µM [activator, full curve, poor fit]",–
COC(=O)c1[nH]c2ccccc2c1NC(=O)CNC1CCCCC1,–,inactive: -2.22%
COc1ccc(C(=O)NC2c3ccccc3-c3ccccc32)cc1,"inconclusive: 29.1 µM [activator, partial curve, poor fit]",–
CNC[C@H](CC1CCCCC1)NC[C@H](CO)NCC1(c2ccccc2)CC1,"inconclusive: 16.4 µM [activator, single point]",–
CC(Nc1c([N+](=O)[O-])c(=O)oc2ccccc12)C(Cl)c1ccccc1 (stereo not drawn),"inconclusive: 18.4 µM [activator, partial curve, poor fit]",–
CCC(C)(C)n1nnnc1CN(Cc1ccco1)Cc1cc2cc3c(cc2[nH]c1=O)OCO3,–,inactive: 15.4%
CC1CCCN(C(=O)c2ccc3nc[nH]c3c2)C1 (stereo not drawn),–,inactive: -6.41%
N=c1n(CCN2CCCCC2)c2ccccc2n1CC(=O)c1cccs1,active: 8.2 µM,–
O=C(CSc1nnc(-c2ccccc2F)o1)N1CCCC1,"inconclusive: 11.6 µM [activator, partial curve, poor fit]",–
COc1cc(C(=O)Nc2cccc(S(=O)(=O)N3CCCC3)c2)cc(OC)c1C,–,inactive: 0.701%
CC(C)(C)NC(=O)NC(=O)COc1ccccc1C#N,–,inactive: -0.666%
Cc1ccc(CSc2ncnc3c2cnn3Cc2ccccc2)cc1C,"inconclusive: 7.31 µM [activator, partial curve, poor fit]",–
COc1cc(C)c(C2NC(=O)c3ccccc3N2)cc1C (stereo not drawn),active: 7.31 µM,–
C1=C[C@@H]2CCN(Cc3ccccc3)Cc3cccc(c32)C1,"inconclusive: 7.31 µM [activator, partial curve, poor fit]",–
O=C(N/N=C/C(Cl)=C/c1ccccc1)c1ccncc1,"inconclusive: 14.6 µM [activator, single point]",–
COc1ccc(S(=O)(=O)Nc2ccc(N3CCOCC3)nc2)cc1,"inconclusive: 29.1 µM [activator, single point]",–
COc1ccc(NC2CCCN(C(=O)C3(C)CCCCC3)C2)cc1 (stereo not drawn),"inconclusive: 2.31 µM [activator, full curve]",–
COc1ccc(NC(=O)COC(=O)c2ncc(Cl)c(Cl)c2Cl)c(OC)c1,–,inactive: -65.4%
N#Cc1c(-c2ccc(F)cc2)cc(-c2cccs2)nc1SCC(=O)O,"inconclusive: 4.11 µM [activator, full curve, poor fit]",–
CCCC[C@@H]1C[C@H]1[C@@H](NC(=O)c1ccco1)c1ccc(Cl)cc1,"inconclusive: 29.1 µM [activator, single point]",–
Cc1cccc(-n2ccnc2SCC(=O)Nc2nnc(C)s2)c1,"inconclusive: 29.1 µM [activator, single point]",–
O=C(NNS(=O)(=O)c1ccc(Cl)cc1)c1cc(-c2ccccc2)nc2ccccc12,–,inactive: 1.8%
